Values of other authors, collected in US12137716B2, “Methods of liver disease treatment” (priority 2015, dated 2024).
For at least one compound, name, drawing or mass did not settle the structure.

Tested on: high-fat diet rats

In the case of O=C(/C=C/C=C/c1ccc2c(c1)OCO2)N1CCCCC1 [piperine], the lipid effects is listed as “hypolipidic effects”.
